The supplement of paper PMC11348887
Structures can show the parent of a compound that is named as a salt. Some of the results follow. Most values lie at the level of the controls, where differences are scatter.

Legend:
Settings in all cases: 5 µM; treatment: days 7-14 after plating, readout day 21
[1] = test system: hPSC-derived cortical neurons (WA09); assay: nucleus area z-score vs screen plate; higher = larger nuclei (more mature)
[2] = test system: hPSC-derived cortical neurons (WA09); assay: total neurite length per nucleus (MAP2) z-score; higher = more neurite growth
[3] = test system: hPSC-derived cortical neurons (WA09); assay: nucleus roundness z-score vs screen plate; higher = rounder nuclei (more mature)
[4] = test system: hPSC-derived cortical neurons (WA09); assay: KCl-induced FOS+/EGR-1+ double-positive nuclei fraction z-score (KCl minus unstimulated); higher = stronger activity-induced IEG response

SMILES	nucleus area z-score [1]	total neurite length per nucleus (z-score) [2]	nucleus roundness z-score [3]	KCl-induced FOS+/EGR-1+ double-positive nuclei fraction z-score [4]
COc1cc([C@@H]2c3cc4c(cc3[C@H](O)[C@H]3COC(=O)[C@@H]23)OCO4)cc(OC)c1OC [Picropodophyllin (PPP)]	-4.26	-1.54	-2.44	-0.622
Cc1sc2c(c1C)C(c1ccc(Cl)cc1)=N[C@@H](CC(=O)OC(C)(C)C)c1nnc(C)n1-2	-8.44	-1.72	-3.95	-0.169
CNCC(=O)c1ccc(O)c(O)c1 [Adrenalone HCl]	0.519	0.588	0.508	-0.389
C/C(=C\c1csc(C)n1)[C@@H]1C[C@@H]2O[C@]2(C)CCC[C@H](C)[C@H](O)[C@@H](C)C(=O)C(C)(C)[C@@H](O)CC(=O)O1 [Epothilone B (EPO906_ Patupilone)]	0.839	-0.298	-0.792	-0.213
C=CC[C@]1(O)CC[C@H]2[C@@H]3CCC4=CC(=O)CCC4=C3C=C[C@@]21C [Altrenogest]	-0.36	-0.183	-0.484	-0.541
OCC(Br)(Br)Br [2,2,2-Tribromoethanol]	1.43	1.17	1.2	1.53
CC[C@@H]1/C=C/C=C/C[C@H](C)[C@H](O)[C@](C)(O)C(=O)[C@H](C)[C@@H](O)[C@H](C)C(=O)[C@H](C)[C@@H](O)[C@H](C)/C=C/C(=O)O[C@H]2[C@@H](C)[C@@H](CC1)O[C@@]1(CC[C@@H](C)[C@@H](C[C@H](C)O)O1)[C@@H]2C [Oligomycin A]	0.105	-0.65	-1.36	-0.64
CN(C)C(=O)Oc1ccc[n+](C)c1 [Pyridostigmine Bromide]	1.13	-0.434	-0.403	0.338
O=c1[nH]c2ccccc2n1C1CCN(CCCC(c2ccc(F)cc2)c2ccc(F)cc2)CC1 [Pimozide]	-3.85	-2.07	-3.76	-0.619
C/C(O)=C(\C#N)C(=O)Nc1cc(Br)ccc1Br	0.513	0.694	0.274	3.29
NC(=O)CN1CC(O)CC1=O (centres undefined) [Oxiracetam]	-0.0651	0.142	-0.354	0.903
Cc1cc(O)ccc1Cl [Chlorocresol]	1.53	-0.788	-1.66	0.249
CCc1c(C(=O)C(N)=O)c2c(OCC(=O)O)cccc2n1Cc1ccccc1	0.52	-0.503	0.294	0.0079
C/C(=C\c1csc(C)n1)[C@@H]1C[C@@H]2O[C@@H]2CCC[C@H](C)[C@H](O)[C@@H](C)C(=O)C(C)(C)[C@@H](O)CC(=O)O1 [Epothilone A]	-0.507	1.51	-0.771	-1.82
CC(C)OC(=O)[C@H](C)N[P@](=O)(CO[C@H](C)Cn1cnc2c(N)ncnc21)Oc1ccccc1 [Tenofovir Alafenamide (GS-7340)]	-0.139	0.61	0.0121	0.156
O=C1C=CC[C@@H]2[C@H]3CCCN4CCC[C@@H](CN12)[C@@H]34 [Sophocarpine]	0.00616	0.00825	0.482	0.717
CNC1CC(N)C(O)C(OC2OC(CO)C(O)C3OC4(OC(C(N)CO)C(O)C(O)C4O)OC23)C1O (centres undefined) [Hygromycin B]	-3.09	-4.76	-1.68	-0.596
CCN(C)C(=O)Oc1cccc([C@H](C)N(C)C)c1 [Rivastigmine Tartrate]	-0.155	0.337	-0.218	-0.855
C=CN1CCCC1=O.II [Povidone iodine]	2.21	0.429	0.23	1.16
CN1CCc2cc3c(cc2C1C1OC(=O)c2c1ccc1c2OCO1)OCO3 (single isomer, unassigned; (+)) [(+)-Bicuculline]	-0.524	0.0655	0.61	-0.0237
COc1cc(OC)c(OC)cc1C=O [Asaraldehyde]	0.921	0.852	-0.754	-0.646
CN[C@@H]1[C@@H](O)[C@@H](O[C@@H]2[C@@H](O)[C@H](O[C@H]3O[C@H]([C@@H](C)O)[C@@H](O)[C@H](O)[C@H]3N)[C@@H](N)C[C@H]2N)OC[C@]1(C)O [Geneticin (G418 Sulfate)]	-1.6	-0.875	-0.595	-1.46
COC[C@H]1OC(=O)c2coc3c2[C@@]1(C)C1=C(C3=O)[C@@H]2CCC(=O)[C@@]2(C)C[C@H]1OC(C)=O [Wortmannin]	0.0147	1.31	-0.0479	1.1
CCc1cc2c(s1)-n1c(C)nnc1CN=C2c1ccccc1Cl [Etizolam]	-0.6	-1.02	-0.572	-0.00833
C[C@@H]1[C@H](O)[C@@H](C)/C=C/C=C/CC/C=C/C=C/C=C/C=C/[C@H](O[C@H]2O[C@@H](C)[C@H](O)[C@@H](N)[C@H]2O)C[C@@H]2O[C@](O)(C[C@@H](O)[C@H](O)CC[C@@H](O)C[C@@H](O)C[C@@H](O)CC(=O)O[C@H]1C)C[C@H](O)[C@H]2C(=O)O [Nystatin (Fungicidin)]	0.0278	-0.194	0.163	-0.278
COc1ccc(C(CN(C)C)C2(O)CCCCC2)cc1 (centres undefined) [Venlafaxine]	-0.717	0.0798	-0.46	-0.179

SMILES	nucleus area z-score [1]	total neurite length per nucleus (z-score) [2]	nucleus roundness z-score [3]	KCl-induced FOS+/EGR-1+ double-positive nuclei fraction z-score [4]
COC(=O)C1=CCCN(C)C1 [Arecoline]	-0.614	-0.783	-0.149	-0.0446
CN(C)C(=O)Oc1cccc([N+](C)(C)C)c1 [Neostigmine Bromide]	0.256	-0.021	-0.687	0.167
CN[C@@H]1C[C@H]2O[C@@](C)([C@@H]1OC)n1c3ccccc3c3c4c(c5c6ccccc6n2c5c31)C(=O)NC4 [Staurosporine]	-9.29	-3	-4.06	-0.813
CCN1CC2(OC(=O)c3ccccc3NC(C)=O)CCC(OC)C34C1C(CC23)C1(O)CC(OC)C2CC4C1(O)C2OC (centres undefined) [Lappaconite HBr]	-0.133	-0.411	-0.399	0.31
C[C@@H]1CC[C@@]2(OC1)O[C@H]1C[C@H]3[C@@H]4CC=C5C[C@@H](O[C@@H]6O[C@H](CO)[C@@H](O[C@@H]7O[C@@H](C)[C@H](O)[C@@H](O)[C@H]7O)[C@H](O)[C@H]6O[C@@H]6O[C@@H](C)[C@H](O)[C@@H](O)[C@H]6O)CC[C@]5(C)[C@H]4CC[C@]3(C)[C@H]1[C@@H]2C [Dioscin]	-6.59	-2.25	1.24	4.9
CN1[C@@H]2C[C@@H](OC(=O)[C@H](CO)c3ccccc3)C[C@H]1[C@@H]1O[C@@H]12 [Scopolamine HBr]	-0.107	1.01	0.744	0.742
CCN(Cc1ccc(Cl)nc1)/C(=C/[N+](=O)[O-])NC [Nitenpyram]	1.13	0.843	0.28	0.487
COc1cc(-n2c(=S)[nH]c3ccccc3c2=O)c(Cl)cc1Cl [Mdivi-1]	1.51	-0.419	-0.755	-0.393
Cc1cccc([C@H](C)c2c[nH]cn2)c1C [Dexmedetomidine HCl]	-0.117	-0.338	0.472	1.1
O=C(O)c1nn(Cc2ccc(Cl)cc2Cl)c2ccccc12 [Lonidamine]	2.9	-0.0807	-0.108	0.057
CN1CCN(c2nc3ccccc3nc2Cl)CC1	-0.0267	-0.429	0.0328	-0.308
CN(C)Cc1c[nH]c2ccccc12 [Gramine]	-1.25	-0.235	0.116	0.235
CN[C@@H]1[C@@H](O)[C@@H](O[C@@H]2[C@@H](O)[C@H](O[C@H]3O[C@H](CN)CC[C@H]3N)[C@@H](N)C[C@H]2N)OC[C@]1(C)O.CN[C@@H]1[C@@H](O)[C@@H](O[C@@H]2[C@@H](O)[C@H](O[C@H]3O[C@H]([C@@H](C)N)CC[C@H]3N)[C@@H](N)C[C@H]2N)OC[C@]1(C)O.CN[C@@H]1[C@@H](O)[C@@H](O[C@@H]2[C@@H](O)[C@H](O[C@H]3O[C@H]([C@@H](C)NC)CC[C@H]3N)[C@@H](N)C[C@H]2N)OC[C@]1(C)O [Gentamicin Sulfate]	-0.417	-0.0552	-0.0857	1.04
C[C@](O)(COc1ccc(C#N)cc1)C(=O)Nc1ccc(C#N)c(C(F)(F)F)c1	0.692	-0.0646	0.00021	0.817
Cc1sc2c(c1C)C(c1ccc(Cl)cc1)=N[C@@H](CC(N)=O)c1nnc(C)n1-2	-6.07	-0.815	-3.8	-0.817
NCC1(CC(=O)O)CCCCC1 [Gabapentin HCl]	-0.179	0.109	0.029	0.477
O=c1ccc2cc(O[C@@H]3O[C@H](CO)[C@@H](O)[C@H](O)[C@H]3O)c(O)cc2o1 [Esculin]	0.185	0.0962	0.484	0.0257
O=C(O)CNC(=O)c1c(O)c2ccccc2n(Cc2ccccc2)c1=O	-0.251	1.2	0.374	0.794
COc1cc2c(cc1OC)[C@@]13CCN4CC5=CCO[C@H]6CC(=O)N2[C@H]1[C@H]6[C@H]5C[C@H]43 [Brucine sulfate salt hydrate]	-3.56	-0.681	-0.48	-0.271
COc1ccc(C[C@H]2NC[C@H](O)[C@H]2OC(C)=O)cc1 [Anisomycin]	-15.3	-5.28	-6.57	-1.29
Cn1c(COP(=O)(NCCBr)NCCBr)cnc1[N+](=O)[O-]	-0.331	1.85	1.27	0.399
CCN(C)C(=O)Oc1cccc([C@H](C)N(C)C)c1 [Rivastigmine]	0.165	1.15	0.242	-0.00171
Cc1cc(SCc2sc(-c3ccc(C(F)(F)F)c(F)c3)nc2C)ccc1OCC(=O)O	-0.0731	0.0928	-0.00673	-0.138
C[N+]1(C)CCCC(OC(=O)C(O)(c2ccccc2)c2ccccc2)C1 (centres undefined) [Mepenzolate Bromide]	1.61	-0.747	0.289	0.595
CC(C)[C@]12O[C@H]1[C@@H]1O[C@]13[C@]1(O[C@H]1C[C@H]1C4=C(CC[C@@]13C)C(=O)OC4)[C@@H]2O [Triptolide (PG490)]	0.551	0.799	0.681	0.353

Single records, from the list above. Order of values: nucleus area z-score [1] | total neurite length per nucleus (z-score) [2] | nucleus roundness z-score [3] | KCl-induced FOS+/EGR-1+ double-positive nuclei fraction z-score [4]
CN(C)Cc1c[nH]c2ccccc12 [Gramine] as listed: -1.25 | -0.235 | 0.116 | 0.235
COC(=O)C1=CCCN(C)C1 [Arecoline] as listed: -0.614 | -0.783 | -0.149 | -0.0446
